For at least one compound, name, drawing or mass did not settle the structure.
System: PCLivS from human liver tissue with biliary fibrosis (PSC, PBC)
Experiment: Fibrotic gene expression (NanoString) in precision cut liver slices
Type: cell-based
Settings: 2 days
Excerpt: A human liver tissue explant was obtained from a PSC patient undergoing liver transplantation.
Slicing: To slice, 8-mm cores were punctured from the liver tissue and were stored in ice cold UW solution until slicing. A tissue core was glued onto the center of the plunger of the specimen syringe for slicing. The core was embedded in 2% low gelling temperature agarose made up in milliQ water. The thickness of the slice was adjusted to 400 μm and was sectioned into oxygenated KHB occurs. The slices were stored in cold UW solution on ice until all slices were cut.
Culture: The compounds were diluted to 1000× concentration in 100% DMSO. The compounds were diluted in a medium with a final concentration of 0.1% DMSO before transferring the slices and making a fresh medium for each 24-H medium change. Before being used for slice culture, all media was equilibrated in the incubator at culture conditions for 30 minutes. After all slices have been cut, all slices were transferred to wells prefilled with oxygenated, warmed, and equilibrated WEGG. The slices were incubated for 1 hour in the incubator at a temperature of 37° C., 5% CO2, 80% 02, 100% humidity on shaking platform set at 55 rpm. After this one-hour recovery, the slices were transferred to wells prefilled with oxygenated, warmed, and equilibrated WEGG with appropriate treatments. […]

SMILES: CC[C@H]1[C@@H](O)[C@@H]2[C@H](CC[C@]3(C)[C@@H]([C@H](C)CCC(=O)O)CC[C@@H]23)[C@@]2(C)CC[C@@H](O)C[C@@H]12 [OCA, obeticholic acid, reference compound]
- dose dependence of COLIA1 and COLIA2 mRNA expression: did not show a dose dependent response

Reference: patent US20250120975A1, “INTEGRIN INHIBITORS FOR TREATMENT OF PRIMARY SCLEROSING CHOLANGITIS” (Pliant Therapeutics, Inc., priority 2023, published 2025)
